PubChem BioAssay AID652272 | Drosophila RNAi Screening Center, 2013

Test: 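Genes whose knock-down decreases or increases Hedgehog reporter output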 (primary screen)
Cells: Drosophila clone 8 (Cl8) cells
Reagents: long dsRNA against Drosophila genes
Measured: 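Firefly light from a Hedgehog-responsive ptc promoter reporter and Renilla reference light, both read on a plate reader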
Direction: firefly Hh reporter signal: higher = more ptc reporter light; Renilla reference signal: higher = more Renilla control light
Rule for the call: 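Hit when the z-score averaged over two replicates is under -2 or over +3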
Calls: active = hit: reporter lowered or raised; inactive = not a hit
In all, the deposit lists about 21,000 reagents; below is an unselected part of those with a known target gene and a result. In the full data, 503 (2.4%) were called active. 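Raw plate light values, not normalised; calls rest on replicate z-scores that were not deposited; hits include reporter decreases as well as increases.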 Unmarked entries are inactive. The numbers tell different reagents against one gene apart. Not given: the amount of reagent, the time to read-out.

Target gene | dsRNA no. | firefly Hh reporter signal, replicate 1 | firefly Hh reporter signal, replicate 2 | firefly Hh reporter signal, replicate 3 | Renilla reference signal, replicate 1 | Renilla reference signal, replicate 2
stw (straw) | 1 | 71269 | 62208 | – | 1741 | 5132
stw (straw) | 2 | 86024 | 71078 | – | 2192 | 5611
CG5149 | 1 | 48065 | 73344 | – | 2324 | 2730
GlnRS (Glutaminyl-tRNA synthetase) | 1 | 56605 | 82184 | – | 1018 | 2490
ACC (Acetyl-CoA carboxylase) | 1 | 28995 (active) | 11474 | – | 1108 | 1220
ACC (Acetyl-CoA carboxylase) | 2 | 37968 | 28496 | – | 2121 | 1405
Arr1 (Arrestin 1) | 1 | 93053 | 55889 | – | 2496 | 4549
CG9953 | 1 | 37255 | 49292 | – | 203 | 3085
CG14200 | 1 | 29392 | 49037 | – | 1499 | 2880
Ugt49B2 (UDP-glycosyltransferase family 49 member B2) | 1 | 5.23e5 | 1.81e5 | – | 24315 | 3751
Cubn2 (Cubilin 2) | 1 | 68994 | 80310 | 63056 | 8604 | 5348
Obp58d (Odorant-binding protein 58d) | 1 | 78138 | 54770 | – | 2042 | 4797
alpha-Man-IIa (alpha-Mannosidase class II a) | 1 | 86194 | 85723 | – | 2538 | 2230
Smvt (Sodium-dependent multivitamin transporter) | 1 | 1.02e5 | 1.90e5 | – | 3752 | 7929
Cnot4 (CCR4-NOT transcription complex subunit 4) | 1 | 1.46e5 | 94091 | – | 3456 | 8498
Cnot4 (CCR4-NOT transcription complex subunit 4) | 2 | 1.38e5 | 56992 | – | 3186 | 4681
Adat1 (Adenosine deaminase, tRNA-specific 1) | 1 | 1.03e5 | 46387 | – | 2711 | 3979
CG3448 | 1 | 47170 | 45507 | 57604 | 5052 | 4485
Inx5 (Innexin 5) | 1 | 67222 | 2.03e5 | – | 1512 | 7928
Prosbeta4R1 (Proteasome beta4 subunit-related 1) | 1 | 90760 | 57008 | – | 2567 | 1500
CG14007 | 1 | 89652 | 52161 | – | 2577 | 5402
CG6470 | 1 | 1.22e5 | 68585 | – | 2869 | 1200
CG7131 | 1 | 1.16e5 | 1.33e5 | – | 4096 | 5703
